Measured values from PubChem BioAssay AID1671190 (National Center for Advancing Translational Sciences (NCATS), 2021).
Hit rate of the full screen: of about 580,000 compounds, about 6,100 (1.1%) were called active. This list was built around the results that the source calls inconclusive (neither active nor inactive); the mix of calls is not that of the screen. The call rests on the fitted dose curve; in most records, active means well fitted inhibition curve with a large enough effect; inconclusive means small, poorly fitted or top-dose-only effect, or another doubt; inactive means no such curve, though single readings can be large or run the other way. Potencies beside an inconclusive call are fits to weak or partial responses and may not hold up.
On the % scale 0 is the no-effect control and ±100 the full control effect; potency means the concentration at half of the fitted maximal effect.

By UniProt entry, the sequences of proteins in these tests, tags left out. Where a name states a change or a piece, a line headed by the entry shows the natural chain unless it says otherwise.
UniProt P18054: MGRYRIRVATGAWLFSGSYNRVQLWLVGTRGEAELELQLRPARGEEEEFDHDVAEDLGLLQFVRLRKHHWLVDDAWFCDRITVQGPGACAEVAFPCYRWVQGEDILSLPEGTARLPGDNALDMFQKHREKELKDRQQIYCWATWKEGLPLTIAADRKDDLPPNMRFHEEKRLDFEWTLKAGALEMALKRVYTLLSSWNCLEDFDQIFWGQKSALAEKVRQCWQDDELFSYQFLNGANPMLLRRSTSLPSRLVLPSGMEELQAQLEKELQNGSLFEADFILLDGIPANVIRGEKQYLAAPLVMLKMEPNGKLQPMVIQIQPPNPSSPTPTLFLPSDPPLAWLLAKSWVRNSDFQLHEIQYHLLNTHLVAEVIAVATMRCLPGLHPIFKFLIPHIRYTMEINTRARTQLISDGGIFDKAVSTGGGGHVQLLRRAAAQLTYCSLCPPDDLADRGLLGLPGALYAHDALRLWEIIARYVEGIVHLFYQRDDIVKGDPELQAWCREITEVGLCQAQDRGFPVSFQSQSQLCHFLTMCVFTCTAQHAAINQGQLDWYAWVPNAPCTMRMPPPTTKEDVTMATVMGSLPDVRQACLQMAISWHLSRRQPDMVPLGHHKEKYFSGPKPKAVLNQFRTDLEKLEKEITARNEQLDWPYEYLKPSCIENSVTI

Each molecule was assayed against Polyunsaturated fatty acid lipoxygenase ALOX12 (Homo sapiens) (UniProt P18054) (assay: Primary qHTS assay for inhibitors of human arachidonate 12S-lipoxygenase (ALOX12): Round 2). Settings: purified 12hLO, xylenol orange hydroperoxide absorbance; activity change, negative = inhibition: at 108 µM (top of the series) unless noted.
Method in brief: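 Hydroperoxide product was detected by ferrous iron/xylenol orange as the 573 to 405 nm absorbance ratio. Arachidonic acid at 40 uM (final) was turned over for 30 min at room temperature by 150 nM human 12hLO, pH 7.0 Hepes buffer, after 15 min compound preincubation.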
For `Cc1nc(NC(C)C)sc1C(=O)NCCc1ccccc1`, the “activity change, negative = inhibition” value was inactive: 14.7%. For `CCN(CC)C(CNC(=O)c1nn(C)c(=O)c2ccccc12)c1ccccc1` (configuration not stated), the “activity change, negative = inhibition” value was inactive: 40.1%. For `Cc1cc([N+](=O)[O-])cc2c1NC(c1ccccn1)C1CC=CC21` (configuration not stated), the Potency was inconclusive: 11.2 µM [inhibitor, partial curve, poor fit]. `Cc1ccc(SCc2nc(-c3ccc(C(=O)NCC(C)c4ccccc4)cc3)oc2C)cc1` (configuration not stated) was tested, and the Potency was inconclusive: 100 µM [inhibitor, partial curve, poor fit]. For `CCOc1ccc(-c2cn(-c3ccccc3OC)c(=S)[nH]2)cc1`, the Potency was inconclusive: 39.8 µM [inhibitor, partial curve]. With `CONC(=O)Cn1c2ccccc2c(=O)c2ccccc21` the “activity change, negative = inhibition” value was inactive: -0.0159%. With `Cc1cc(C(=O)CSc2ccc(F)cc2)cc(C)c1OC(=S)N(C)C` the “activity change, negative = inhibition” value was inactive: 4.56%. For `O=C(NCCCc1ccccc1)c1cc(C2CC2)nc2ccccc12`, the Potency was inconclusive: 63.1 µM [inhibitor, partial curve, poor fit]. With `CCC1CCCCN1C(=O)COC(=O)CSc1ccc(C(N)=O)cc1[N+](=O)[O-]` (configuration not stated) the “activity change, negative = inhibition” value was inactive: 0.625%. In the case of `CCC(=O)N(CC)C1=C(O)c2ccccc2C(=O)C1=O`, the Potency is reported as inconclusive: 11.2 µM [inhibitor, full curve]. `CCOc1ccc(-c2nc3cc(NC(=O)COc4ccccc4C)ccc3o2)cc1` was tested, and the “activity change, negative = inhibition” value was inactive: -5.14%. For `CNC(=O)C1(N2CCC[C@H]2C(=O)NCCN2CCOCC2)CCCCC1`, the Potency was inconclusive: 12.6 µM [inhibitor, partial curve]. In the case of `O=C1NCCCCCCN(C(=O)CC(F)(F)F)[C@H]2C[C@H](c3nc(-c4cccnc4)no3)C[C@@H]12`, the “activity change, negative = inhibition” value is reported as inactive: 40.2%. In the case of `O=C(c1ccccc1)c1ccc2c(c1)OCCCO2`, the Potency is reported as inconclusive: 141 µM [inhibitor, single point]. `COCCc1ccc(-c2csc(NC(=O)c3cc4cnn(C(C)C)c4nc3C)n2)cc1` was tested, and the Potency was inconclusive: 44.7 µM [inhibitor, partial curve, poor fit]. `Cc1cccc2nc(-c3ccc(N4CCOCC4)cc3)c(Nc3ccc4c(c3)OCCO4)n12` was tested, and the Potency was inconclusive: 112 µM [inhibitor, single point]. In the case of `Nc1nnnn1NCc1cc(Cl)ccc1OCc1ccc(Cl)cc1Cl`, the Potency is reported as inconclusive: 39.8 µM [inhibitor, partial curve, poor fit]. With `O=C(Nc1ccc(Cl)cc1)c1cc(S(=O)(=O)NC2CCCCCC2)ccc1F` the Potency was inconclusive: 100 µM [inhibitor, partial curve, poor fit]. With `COc1ccc(NS(=O)(=O)c2ccc(NC(=S)NC(=O)c3ccc(F)cc3)cc2)nn1` the Potency was inconclusive: 50.1 µM [inhibitor, partial curve, poor fit]. For `c1ccc(-c2nc(NCC3CC3)nc3ccsc23)cc1`, the Potency was inconclusive: 39.8 µM [inhibitor, partial curve, poor fit]. For `COc1ccc(NC(=S)N2CCC(N(C)CC3CCCO3)CC2)cc1` (configuration not stated), the Potency was inconclusive: 35.5 µM [inhibitor, partial curve, poor fit]. In the case of `Cc1ccc(/C=N/Nc2ccc(S(=O)(=O)Nc3ccccc3C(=O)O)cc2[N+](=O)[O-])o1`, the Potency is reported as active: 14.1 µM. In the case of `CC(C)CN1CCC(O)(c2csc(CN3CCN(c4ccccn4)CC3)n2)CC1`, the “activity change, negative = inhibition” value is reported as inactive: -7.13% [at 176 µM]. With `COc1cccc(-c2cc(CNC(=O)[C@H]3O[C@@H](n4ccc(=O)[nH]c4=O)[C@H](O)[C@@H]3O)no2)c1` the Potency was inconclusive: 141 µM [inhibitor, single point]. For `O=C(Nc1ccccc1)c1ccc(-c2ccccc2Cl)o1`, the Potency was inconclusive: 35.5 µM [inhibitor, partial curve, poor fit]. For `Cc1cc(C)cc(Nc2nc(-c3cccnc3)nc3ccccc23)c1`, the Potency was inconclusive: 50.1 µM [inhibitor, partial curve, poor fit]. For `CC1=NC(=O)C(N=Nc2cccc(C(=O)O)c2)N1c1ccccc1` (configuration not stated), the Potency was active: 7.08 µM. `Cc1ccc(S(=O)(=O)N2CCCC(Cn3c(C4CC4)nc4cccnc43)C2)cc1F` (configuration not stated) was tested, and the Potency was inconclusive: 89.1 µM [inhibitor, single point]. In the case of `COC(=O)Cn1c(=NC(=O)c2cc(-c3cccs3)nc3ccccc23)sc2cc(S(N)(=O)=O)ccc21`, the “activity change, negative = inhibition” value is reported as inactive: -26.1%. `Cc1nc(-c2c3n(c(=O)n(CC(=O)c4ccc(Cl)cc4)c2=O)CCCC3)no1` was tested, and the Potency was inconclusive: 8.91 µM [inhibitor, full curve]. For `Cc1cc(C(=O)NCC#Cc2cccc(C(F)(F)F)c2)c2ccccc2n1`, the Potency was inconclusive: 50.1 µM [inhibitor, partial curve, poor fit]. For `CCOc1ccc(C(=O)Nc2ccc3c(c2)OCCO3)cc1Br`, the “activity change, negative = inhibition” value was inactive: -27.7%. In the case of `COc1cccc(NC(=O)CN(C)C(=O)CSCC(=O)Nc2ccc(C)cc2)c1`, the Potency is reported as inconclusive: 251 µM [inhibitor, partial curve, poor fit]. With `Cc1ccc(-c2csc3ncnc(Nc4ccc(C(=O)O)cc4)c23)cc1` the Potency was inconclusive: 50.1 µM [inhibitor, partial curve, poor fit]. With `COc1cc(NS(=O)(=O)c2ccc(-c3cc(C)no3)cc2)cc(OC)c1` the “activity change, negative = inhibition” value was inactive: -7.29%. With `CCOC(=O)C1CCCN(C(=O)COC(=O)C2=COCCO2)C1` (configuration not stated) the Potency was inconclusive: 3.98 µM [inhibitor, full curve, poor fit]. In the case of `O=C(O)/C(CC(=O)c1ccc(Cl)cc1)=N/Nc1ccc([N+](=O)[O-])cc1[N+](=O)[O-]`, the Potency is reported as inconclusive: 3.16 µM [inhibitor, full curve, poor fit]. In the case of `O=C(CN1CCN(c2cccc(C(F)(F)F)c2)CC1)Nc1cccc(C(F)(F)F)c1`, the Potency is reported as inconclusive: 0.355 µM [inhibitor, full curve, poor fit]. `CN(C)C(=O)c1ccc(-c2cc(-n3ccnc3)ncn2)cc1` was tested, and the Potency was active: 25.1 µM. `COC(=O)C1=C(C)N(Cc2ccccc2)C(=S)N[C@H]1c1ccccc1` was tested, and the Potency was inconclusive: 50.1 µM [inhibitor, partial curve, poor fit]. With `O=C(/C=C/c1cccs1)c1cc(Br)ccc1OC(=O)N1CCOCC1` the “activity change, negative = inhibition” value was inactive: 0%. `CC(C)C[C@H]1CNC(=O)C(=O)N1C[C@@H]1CCCN1C[C@H](Cc1ccc(O)cc1)N1C[C@H](Cc2ccccc2)N(CC2CCCCCC2)C(=O)C1=O` was tested, and the Potency was inconclusive: 44.7 µM [inhibitor, partial curve, poor fit].
